The experiment addresses recombinant protein VI-wt (adenovirus serotype 5 capsid protein VI) (human adenovirus serotype 5 (Ad5)) (UniProt P24937). Put plainly: pull-down; recombinant protein VI-wt or VI-M1 coupled to beads; cytosolic extracts of 293T cells overexpressing GFP-tagged Nedd4 ligases; bound material detected by western blot with the respective antibodies; only the target purified.

Chains of the proteins cited; added tags and fusions are not shown.
UniProt P24937: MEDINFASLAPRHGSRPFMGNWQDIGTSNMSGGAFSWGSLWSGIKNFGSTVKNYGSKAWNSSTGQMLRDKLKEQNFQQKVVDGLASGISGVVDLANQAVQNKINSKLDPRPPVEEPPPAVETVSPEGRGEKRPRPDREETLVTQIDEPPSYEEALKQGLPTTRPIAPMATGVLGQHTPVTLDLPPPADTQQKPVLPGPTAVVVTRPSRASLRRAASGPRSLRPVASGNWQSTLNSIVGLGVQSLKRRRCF

No constants are given. Whether binding was seen depends on the method and setting. Binding seen in cells or lysates may run through a third protein. Binding calls can cover weak binding; strength is not graded here.

As to “GFP-Nedd4.1 (from UniProt P46934-4) (enzyme)”, the binding result is recorded as “binds”.

The values above are taken from publication PMC2841620.
